Publication PMC5073310
No constants are given. Whether binding was seen depends on the method and setting.

Target: T1, FERM domain of the protein tyrosine phosphatase PTPN13, yeast two-hybrid control (UniProt Q12923)
T1 sequence: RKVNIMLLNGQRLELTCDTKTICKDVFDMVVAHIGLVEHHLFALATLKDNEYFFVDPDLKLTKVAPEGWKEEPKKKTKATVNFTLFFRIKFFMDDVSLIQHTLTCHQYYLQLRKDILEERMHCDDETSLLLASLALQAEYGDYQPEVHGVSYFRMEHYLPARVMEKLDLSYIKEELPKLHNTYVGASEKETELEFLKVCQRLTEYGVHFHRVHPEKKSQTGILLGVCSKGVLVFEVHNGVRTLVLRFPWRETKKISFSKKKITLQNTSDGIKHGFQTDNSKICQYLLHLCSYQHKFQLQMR
Test: two-hybrid; yeast two-hybrid; SDCCAG3 aa 1-100 as bait (screen), then IFT88 (full-length) co-transformed with SDCCAG3 aa 1-100 or negative control plasmids; growth on media deficient for Trp, Leu and His

B1: IFT88 (full-length), yeast two-hybrid construct (protein, UniProt Q13099 1-824)
chain: MMQNVHLAPETDEDDLYSGYNDYNPIYDIEELENDAAFQQAVRTSHGRRPPITAKISSTAVTRPIATGYGSKTSLASSIGRPMTGAIQDGVTRPMTAVRAAGFTKAALRGSAFDPLSQSRGPASPLEAKKKDSPEEKIKQLEKEVNELVEESCIANSCGDLKLALEKAKDAGRKERVLVRQREQVTTPENINLDLTYSVLFNLASQYSVNEMYAEALNTYQVIVKNKMFSNAGILKMNMGNIYLKQRNYSKAIKFYRMALDQVPSVNKQMRIKIMQNIGVTFIQAGQYSDAINSYEHIMSMAPNLKAGYNLTICYFAIGDREKMKKAFQKLITVPLEIDEDKYISPSDDPHTNLVTEAIKNDHLRQMERERKAMAEKYIMTSAKLIAPVIETSFAAGYDWCVEVVKASQYVELANDLEINKAVTYLRQKDYNQAVEILKVLEKKDSRVKSAAATNLSALYYMGKDFAQASSYADIAVNSDRYNPAALTNKGNTVFANGDYEKAAEFYKEALRNDSSCTEALYNIGLTYEKLNRLDEALDCFLKLHAILRNSAEVLYQIANIYELMENPSQAIEWLMQVVSVIPTDPQVLSKLGELYDREGDKSQAFQYYYESYRYFPCNIEVIEWLGAYYIDTQFWEKAIQYFERASLIQPTQVKWQLMVASCFRRSGNYQKALDTYKDTHRKFPENVECLRFLVRLCTDLGLKDAQEYARKLKRLEKMKEIREQRIKSGRDGSGGSRGKREGSASGDSGQNYSASSKGERLSARLRALPGTNEPYESSSNKEIDASYVDPLGPQIERPKTAAKKRIDEDDFADEELGDDLLPE
binding: no binding
